Assay [1] has as its target T1, GST-RUFY3 (RUN and FYVE domain containing 3) (human) (UniProt Q7L099).
T1 sequence: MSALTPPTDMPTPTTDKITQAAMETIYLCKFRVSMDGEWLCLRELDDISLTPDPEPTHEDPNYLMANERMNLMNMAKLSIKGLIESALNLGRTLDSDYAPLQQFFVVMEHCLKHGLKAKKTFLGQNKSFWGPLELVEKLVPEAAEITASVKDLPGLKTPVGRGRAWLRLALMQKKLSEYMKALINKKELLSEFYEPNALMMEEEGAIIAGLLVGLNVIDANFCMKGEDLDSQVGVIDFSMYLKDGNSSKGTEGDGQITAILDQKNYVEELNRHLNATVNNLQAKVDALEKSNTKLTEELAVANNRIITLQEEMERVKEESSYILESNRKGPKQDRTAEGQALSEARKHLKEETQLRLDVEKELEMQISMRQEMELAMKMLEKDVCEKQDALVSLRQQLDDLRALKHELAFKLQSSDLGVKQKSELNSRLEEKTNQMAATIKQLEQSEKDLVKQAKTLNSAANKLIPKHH
The assay can be described thus: pull-down; GST-fusion protein on glutathione-conjugated Sepharose beads; 10 ul of in vitro translated His-tagged protein (TNT system); bound proteins visualized by western blot with anti-His antibody; only the target purified. In general terms: A western blot detects proteins with antibodies after separation by electrophoresis.

Sequences of proteins named here, by UniProt entry; tags and fusion partners are left off.
UniProt Q13153: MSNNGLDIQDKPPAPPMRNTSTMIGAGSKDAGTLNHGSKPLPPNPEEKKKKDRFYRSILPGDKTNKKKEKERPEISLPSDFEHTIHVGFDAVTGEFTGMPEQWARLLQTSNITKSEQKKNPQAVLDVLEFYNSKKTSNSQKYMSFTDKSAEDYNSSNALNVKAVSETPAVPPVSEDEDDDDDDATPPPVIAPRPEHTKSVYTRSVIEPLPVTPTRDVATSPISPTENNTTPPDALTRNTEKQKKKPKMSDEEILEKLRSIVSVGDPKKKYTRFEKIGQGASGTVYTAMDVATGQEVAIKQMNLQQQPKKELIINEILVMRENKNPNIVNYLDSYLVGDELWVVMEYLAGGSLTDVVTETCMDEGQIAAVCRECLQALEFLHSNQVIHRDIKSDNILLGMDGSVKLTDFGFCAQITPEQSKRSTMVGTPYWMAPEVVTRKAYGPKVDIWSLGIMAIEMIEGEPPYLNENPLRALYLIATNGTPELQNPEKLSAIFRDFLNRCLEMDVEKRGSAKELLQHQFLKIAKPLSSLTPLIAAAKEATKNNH

In assay [2] the target is T2, endogenous RUFY3 of BGC-823 cells (human (endogenous in BGC-823)) (UniProt Q7L099).
T2 sequence: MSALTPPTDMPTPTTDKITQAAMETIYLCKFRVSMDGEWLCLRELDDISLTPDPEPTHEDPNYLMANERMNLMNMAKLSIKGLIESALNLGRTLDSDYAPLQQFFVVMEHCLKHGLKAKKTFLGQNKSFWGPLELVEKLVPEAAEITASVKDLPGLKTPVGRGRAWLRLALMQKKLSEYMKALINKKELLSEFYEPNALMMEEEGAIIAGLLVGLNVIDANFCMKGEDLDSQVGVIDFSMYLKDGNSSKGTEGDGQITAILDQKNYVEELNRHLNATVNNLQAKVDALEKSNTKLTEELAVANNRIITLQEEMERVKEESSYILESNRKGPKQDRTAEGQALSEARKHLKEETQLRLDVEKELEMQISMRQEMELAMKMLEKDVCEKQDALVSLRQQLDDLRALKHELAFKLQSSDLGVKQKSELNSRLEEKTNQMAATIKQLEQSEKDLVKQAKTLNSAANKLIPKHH
The assay is described as follows: co-IP; endogenous proteins in cell lysates (COS-7, BGC-823); IP with anti-PAK1 or anti-RUFY3 antibody and protein A-Sepharose 4B; IP lysis buffer 25 mM Tris pH 7.4, 150 mM NaCl, 1% Nonidet P-40, 1 mM EDTA.

Assay [3] concerns the target T3, GFP-RUFY3 (human) (UniProt Q7L099).
T3 sequence: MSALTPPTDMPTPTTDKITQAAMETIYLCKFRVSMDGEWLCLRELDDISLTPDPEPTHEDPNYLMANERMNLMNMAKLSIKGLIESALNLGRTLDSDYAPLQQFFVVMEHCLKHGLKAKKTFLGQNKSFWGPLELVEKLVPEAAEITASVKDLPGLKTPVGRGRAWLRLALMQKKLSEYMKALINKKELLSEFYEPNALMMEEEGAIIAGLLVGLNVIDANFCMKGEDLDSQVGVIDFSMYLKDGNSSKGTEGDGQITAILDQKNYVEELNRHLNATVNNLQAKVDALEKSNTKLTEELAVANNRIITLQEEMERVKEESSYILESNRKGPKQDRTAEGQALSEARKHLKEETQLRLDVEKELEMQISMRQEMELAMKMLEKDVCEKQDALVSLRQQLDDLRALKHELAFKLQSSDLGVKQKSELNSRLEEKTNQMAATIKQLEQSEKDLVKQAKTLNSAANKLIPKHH
The assay can be described thus: co-IP; lysate of HEK293 cells co-transfected with GFP-RUFY3 and myc-PAK1; IP with anti-GFP antibody and protein A-Sepharose 4B; blot with anti-myc and anti-GFP; IP lysis buffer 25 mM Tris pH 7.4, 150 mM NaCl, 1% Nonidet P-40, 1 mM EDTA.

For assay [4], the target named is GST-PAK1 (UniProt Q13153). The assay can be described thus: pull-down; GST-fusion protein on glutathione-conjugated Sepharose beads; 10 ul of in vitro translated His-tagged protein (TNT system); bound proteins visualized by western blot with anti-His antibody; only the target purified.
The target of assay [5] is PAK1, yeast two-hybrid bait (UniProt Q13153). The assay can be described thus: two-hybrid; yeast two-hybrid screen with PAK1 as bait; no further details given.

Results are given in words; binding and its absence hold for the method and conditions named. For some assays here: In cells and extracts the contact can be indirect. Some results given as binding are weak or reduced against the parent protein; the word gives no strength. For some assays here: Sequences can lack the tags named with a protein.

Take “In vitro-translated His-PAK1 (P21-activated kinase-1) (from UniProt Q13153 1-545) (enzyme)”: in assay [1], the binding entry is listed as “binds”.

As for “endogenous PAK1 of BGC-823 cells (from UniProt Q13153 1-545) (enzyme)”, the binding entry in assay [2] is “binds”.

Regarding “myc-PAK1 (from UniProt Q13153 1-545) (enzyme)”, the binding result in assay [3] was “binds”.

B1: In vitro-translated His-RUFY3 (protein, UniProt Q7L099 1-469)
chain: MSALTPPTDMPTPTTDKITQAAMETIYLCKFRVSMDGEWLCLRELDDISLTPDPEPTHEDPNYLMANERMNLMNMAKLSIKGLIESALNLGRTLDSDYAPLQQFFVVMEHCLKHGLKAKKTFLGQNKSFWGPLELVEKLVPEAAEITASVKDLPGLKTPVGRGRAWLRLALMQKKLSEYMKALINKKELLSEFYEPNALMMEEEGAIIAGLLVGLNVIDANFCMKGEDLDSQVGVIDFSMYLKDGNSSKGTEGDGQITAILDQKNYVEELNRHLNATVNNLQAKVDALEKSNTKLTEELAVANNRIITLQEEMERVKEESSYILESNRKGPKQDRTAEGQALSEARKHLKEETQLRLDVEKELEMQISMRQEMELAMKMLEKDVCEKQDALVSLRQQLDDLRALKHELAFKLQSSDLGVKQKSELNSRLEEKTNQMAATIKQLEQSEKDLVKQAKTLNSAANKLIPKHH
Turning to B1, in assay [4], the binding result is “binds”.

B2: human RUFY3, yeast two-hybrid prey (protein, UniProt Q7L099 1-469)
chain: MSALTPPTDMPTPTTDKITQAAMETIYLCKFRVSMDGEWLCLRELDDISLTPDPEPTHEDPNYLMANERMNLMNMAKLSIKGLIESALNLGRTLDSDYAPLQQFFVVMEHCLKHGLKAKKTFLGQNKSFWGPLELVEKLVPEAAEITASVKDLPGLKTPVGRGRAWLRLALMQKKLSEYMKALINKKELLSEFYEPNALMMEEEGAIIAGLLVGLNVIDANFCMKGEDLDSQVGVIDFSMYLKDGNSSKGTEGDGQITAILDQKNYVEELNRHLNATVNNLQAKVDALEKSNTKLTEELAVANNRIITLQEEMERVKEESSYILESNRKGPKQDRTAEGQALSEARKHLKEETQLRLDVEKELEMQISMRQEMELAMKMLEKDVCEKQDALVSLRQQLDDLRALKHELAFKLQSSDLGVKQKSELNSRLEEKTNQMAATIKQLEQSEKDLVKQAKTLNSAANKLIPKHH
On to B2, for which, in assay [5], the binding result is “binds”.

Source of the values: paper PMC4385928.
